Test results published in patent US9592212B2, “Use of pan-PPAR agonists for treatment of tauopathies” (Cornell University, priority 2011, dated 2017).
For at least one compound, name, drawing or mass did not settle the structure.

What was measured:
Type in all cases: in vivo
[1] = test system: R6/2 mice; assay: Liver H&E staining in R6/2 mice; conditions: R6/2 mice treated with bezafibrate
[2] = test system: R6/2 mice; assay: Soleus muscle fiber typing (SDH histochemistry) and electron microscopy in R6/2 mice
[3] = test system: R6/2 mice; assay: Behavioral tests (grip strength, open field, rotarod) in R6/2 mice
Procedure: All experiments were conducted within National Institutes of Health guidelines for animal research and were approved by the Weill Cornell Medical College Animal Care and Use Committee. The animals were kept on a 12-hr light/dark cycle, with food and water available ad libitum. Mice were fed standard diet containing 0.5% bezafibrate or standard diet (Purina-Mills Richmond, Ind., USA), starting right after weaning up to 3 months of age.
Experimenters were blind to the genotype during all testing, at least until the appearance of a robust behavioral phenotype in the mutants. We utilized a behavioral testing battery consisting of: rotarod, grip strength and open field. […] The latency to fall from the rod was recorded. Exploratory behavior was recorded in the open-field (45 cm×45 cm; height: 20 cm), for 10 min per day using a video tracking system (Ethovision 3.0, Noldus Technology, Attleborough, Mass., USA) and averaged over 3 days. […]
To assess muscle strength we tested the R6/2 mice and their wild-type littermates on the grip strength test (FIG. 2A). […] Motor coordination was assessed by performance on an accelerated rotarod apparatus. Latency to fall was recorded for 3 trials per weekly assessment and scores were averaged (FIG. 2C).

[4] = test system: R6/2 mice; assay: Brown adipose tissue H&E and Oil red O staining in R6/2 mice
[5] = test system: BACHD mice; assay: BACHD full length mhtt transgenic mouse model of HD; conditions: unpublished observations
[6] = test system: PGC-1α signaling pathway; assay: Real-time PCR of PGC-1α signaling pathway genes in R6/2 mice on bezafibrate diet
[7] = test system: R6/2 mice; assay: Striatal neuropathology of R6/2 mice (calbindin, electron microscopy, GFAP)
[8] = test system: R6/2 mice; assay: Oxidative stress (malondialdehyde immunostaining and HPLC) in R6/2 mice

SMILES: CC(C)(Oc1ccc(CCNC(=O)c2ccc(Cl)cc2)cc1)C(=O)O [bezafibrate]
- liver morphology (H&E) [1]: appears normal
- mitochondria shape and arrangement along Z-lines in soleus muscle (electron microscopy) ([2]; R6/2 mice): restored to normal
- type I and II fibers in soleus muscle (SDH histochemistry) ([2]; R6/2 mice on bezafibrate diet): returning back to normal levels
- open field total distance covered ([3]; treated R6/2 vs R6/2 mice on standard diet): significantly greater
- rotarod latency to fall (motor coordination) ([3]; treated vs untreated R6/2 mice, accelerated rotarod): remained on the rotarod longer
- Oil red O staining (neutral lipids) in brown adipose tissue ([4]; R6/2 mice): reduced oil red O staining
- vacuolization in brown adipose tissue (H&E) ([4]; R6/2 mice vs standard diet): reduced vacuolization
- effects in BACHD mice [5]: exerts beneficial effects
- expression of ROS-responsive genes HO-1, Nrf-2 and Gpx-1 ([6]; R6/2 brains, 0.5% bezafibrate diet): restored the levels of these genes to control levels
- mRNA expression of FL and NT-PGC-1α isoforms ([6]; R6/2 mice, brain and peripheral tissues, 0.5% bezafibrate diet from weaning): significantly induced
- mRNA levels of PGC-1α, PPARs and downstream targets Cyt c, Tfam and ATP synthase ([6]; R6/2 mice, brain, muscle and BAT, 0.5% bezafibrate diet): restored
- calbindin-positive neuron area in striatum ([7]; 12-week-old R6/2 mice): increases
- GFAP immunoreactivity (astrogliosis) in striatum ([7]; R6/2 mice): amelioration of astrogliosis
- ultrastructural abnormalities of striatal neurons (electron microscopy) ([7]; R6/2 mice): amelioration of these abnormalities
- numbers of mitochondria (mitochondrial density) in striata ([7]; treated R6/2 vs R6/2 mice on standard chow): significant increase
- MDA levels by HPLC ([8]; R6/2 brains): significantly reduced
- MDA immunoreactivity in striatum ([8]; R6/2 mice): ameliorated
